{"source": "patent US20250127168A1", "about": "“METHOD FOR PATHOGENS, MICROORGANISMS, AND PARASITES INACTIVATION” (New York Blood Center, Inc., priority 2018, published 2025)", "test_system": "B. cereus", "test": "Bacterial inactivation in WB, LB and RBCC, growth/no growth", "assay_type": "cell-based", "conditions": "RBCC, 100 μM, 6 h at RT", "method": "Two G− species, Y. enterocolitica and P. fluorescens, both psychrophiles, and two G+ bacteria, S. epidermids and B. cereus, all known blood contaminants, were used in this study. All blood samples were spiked with approximately 0.1% bacterial stock suspension prepared in RS and left for equilibration at RT for 30 min. Freshly grown overnight bacterial cultures were used for each spiking. Compound VI and compound X were added to spiked blood to final concentrations of 100, 250, and 500 μM. Control samples (Ctr) received solvent only. Incubation was carried out at RT for 6 h followed by the addition of an inactivator, 100x Na thiosulfate, and additional incubation at RT for 2 h. After the incubation and quenching, aliquots were taken for serial dilutions and plate drop-counting and the bacterial growth-promoting solution (containing tryptone, peptone, yeast extract and casamino acids) was added to the remaining volumes. The growth/no growth results were confirmed by streaking agar plates.", "note": "At least one structure is not confirmed: it was looked up by name or label, or the drawing left a doubt."}
{"smiles": "CN(CCCCN(C)CCCN1CC1)CCCN(C)CCCN1CC1", "note": "[Compound X]", "values": [{"measurement": "Growth / No growth", "result": "±"}]}
